Laboratory results: PubChem BioAssay AID686943 (Drosophila RNAi Screening Center, 2013)

Screen: 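Knockdowns that increase or decrease active ERK after insulin receptor stimulation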 (primary screen)
Cells: Drosophila S2R+ haemocyte-like cells expressing YFP-tagged ERK (Rolled)
Reagent: long dsRNA against Drosophila genes
Conditions: insulin stimulation versus unstimulated cells; dose and duration not given
Detection: 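Per-plate z-scores of phospho-ERK immunostaining normalised to YFP-tagged ERK, measured with and without insulin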
Direction: replicate 1, z-score of dpERK with insulin and replicate 2, z-score of dpERK with insulin: higher = more active ERK per ERK-YFP after insulin; replicate 1, z-score of dpERK under basal conditions: higher = more basal active ERK per ERK-YFP; replicate 1, z-score of ERK-YFP with insulin: higher = more YFP-tagged ERK signal
In all, the deposit lists about 23,000 reagents; shown is a random part of those with a known target gene and a result. 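Extra replicates exist only for a retested subset of genes; insulin dose and duration not given; both raised and lowered dpERK matter.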 The numbers tell different reagents against one gene apart. A plus sign joins genes that one reagent is predicted to hit. Reagent sequences are not shown. Not stated in the record: the amount of reagent, the time to read-out.

predicted target,dsRNA no.,"replicate 1, z-score of dpERK with insulin","replicate 2, z-score of dpERK with insulin","replicate 1, z-score of dpERK under basal conditions","replicate 1, z-score of ERK-YFP with insulin"
beta-Man (beta-Mannosidase),1,-0.05,-0.14,-0.39,-0.14
beta-Man (beta-Mannosidase),2,-0.07,0.42,1.51,0.59
cora (coracle),1,1.54,0.59,0.89,0.14
Gld (Glucose dehydrogenase),1,0.38,0.85,-0.56,-0.01
CG11905,1,-0.34,-0.43,-0.32,0.72
CG3548,1,0.67,0.15,0.45,-1.43
ppk18 (pickpocket 18),1,0.27,-0.07,-0.58,-0.24
ppk18 (pickpocket 18),2,-0.15,0.3,-0.97,0.51
Tango2 (Transport and Golgi organization 2),1,0.17,0.37,0.48,-0.01
Tango2 (Transport and Golgi organization 2),2,-0.14,0.89,-1.29,0.48
CG18557,1,0.66,0.59,0.58,-0.69
rumi,1,-1.29,-0.86,-0.65,1.33
CG30414,1,-0.75,1.27,-0.09,0.28
CG11777,1,-0.31,0.43,0.02,0.44
CG14933 + CG42486,1,0.12,0.79,-0.29,1.07
Nelf-E (Negative elongation factor E),1,0.21,0.48,,0.54
Or85b (Odorant receptor 85b),1,0.14,0.96,-0.69,0.53
CG15561,1,1.43,0.09,0.11,0.27
Bug22 (Basal body up regulated gene 22),1,-0.22,0.53,0.46,0.43
CG15882,1,-0.08,-0.14,0.74,0.57
CG8245,1,0.52,0.77,-0.68,-0.22
Cpr62Bb (Cuticular protein 62Bb),1,0.08,-0.55,-0.68,-0.52
CG15695,1,-0.18,-0.26,-0.45,0.47
kat80 (katanin 80),1,-0.18,0.17,1.56,0.2
kat80 (katanin 80),2,-0.41,-0.59,0.97,1.12

Laid out differently: 6 of the entries above
| predicted target | dsRNA no. | replicate 1, z-score of dpERK with insulin | replicate 2, z-score of dpERK with insulin | replicate 1, z-score of dpERK under basal conditions | replicate 1, z-score of ERK-YFP with insulin |
| --- | --- | --- | --- | --- | --- |
| rumi | 1 | -1.29 | -0.86 | -0.65 | 1.33 |
| CG30414 | 1 | -0.75 | 1.27 | -0.09 | 0.28 |
| CG11777 | 1 | -0.31 | 0.43 | 0.02 | 0.44 |
| CG14933 + CG42486 | 1 | 0.12 | 0.79 | -0.29 | 1.07 |
| Nelf-E (Negative elongation factor E) | 1 | 0.21 | 0.48 | – | 0.54 |
| Or85b (Odorant receptor 85b) | 1 | 0.14 | 0.96 | -0.69 | 0.53 |

More entries follow:
predicted target,dsRNA no.,"replicate 1, z-score of dpERK with insulin","replicate 2, z-score of dpERK with insulin","replicate 1, z-score of dpERK under basal conditions","replicate 1, z-score of ERK-YFP with insulin"
qkr58E-2 (quaking related 58E-2),1,-0.21,1.35,-0.43,-0.34
Or22c (Odorant receptor 22c),1,1.21,0.29,-0.24,-0.42
RpL38 (Ribosomal protein L38),1,-2.19,-0.85,-1.7,-2.04
vir-1 (virus-induced RNA 1),1,-0.12,0.08,0.17,-0.3
vir-1 (virus-induced RNA 1),2,-0.23,0.71,-0.28,-3.63
CG32816,1,-0.31,0.11,-0.83,0.66
alpha-Man-Ia (alpha-Mannosidase class I a),1,-1.67,0.78,-0.48,1.55
alpha-Man-Ia (alpha-Mannosidase class I a),2,-0.27,-0.17,-0.95,0.55
alpha-Man-Ia (alpha-Mannosidase class I a),3,0.19,0.41,-0.16,-0.31
alpha-Man-Ia (alpha-Mannosidase class I a),4,0.81,0.11,-1.02,0.36
CG7974,1,0.23,-0.15,0.23,0.04
CG43109,1,2.55,1.12,-0.36,0.65
Est-Q (Esterase Q),1,-0.1,0.48,-0.99,0.03
CG18530,1,-1.28,-0.35,0.92,0.81
fau,1,-0.16,-1.06,-0.17,-0.16
fau,2,0.69,0.67,0.51,0.31
fau,3,-0.35,-0.24,,-0.6
fau,4,-0.41,0.15,-0.19,0.63
fau,5,0.93,-0.32,-0.22,-0.26
fau,6,0.52,0.92,-0.69,0.38
CG13130 (retired record),1,-5.8,-5,-1.88,0.5
Mst98Cb (Male-specific RNA 98Cb),1,-0.17,0.41,-0.26,0.36
Mst98Cb (Male-specific RNA 98Cb),2,-0.15,-0.45,-0.86,1.45
CG12054,1,-0.8,-3.21,0.96,-0.09
CG31287,1,-0.78,0.77,0.91,0.21
Or1a (Odorant receptor 1a),1,0,0.34,-2.2,0
glec (gliolectin),1,0.12,-0.36,-1.47,1.06
CG8671,1,0.05,-0.21,0.33,0.5
CG8671,2,-1.05,-0.21,-0.39,-0.54
CG8517,1,0.95,0.58,-0.15,0.2
lncRNA:CR42859 (long non-coding RNA:CR42859),1,0.92,0.15,0.21,-1.15
CG11619,1,1.02,0.38,2.03,-0.13
